Results published in the supplement of paper PMC10849652.
This is one part of the list.

By UniProt entry, the sequences of proteins in these tests, tags left out. Where a name states a change or a piece, a line headed by the entry shows the natural chain unless it says otherwise.
UniProt Q9BUF5, whole entry, looked up: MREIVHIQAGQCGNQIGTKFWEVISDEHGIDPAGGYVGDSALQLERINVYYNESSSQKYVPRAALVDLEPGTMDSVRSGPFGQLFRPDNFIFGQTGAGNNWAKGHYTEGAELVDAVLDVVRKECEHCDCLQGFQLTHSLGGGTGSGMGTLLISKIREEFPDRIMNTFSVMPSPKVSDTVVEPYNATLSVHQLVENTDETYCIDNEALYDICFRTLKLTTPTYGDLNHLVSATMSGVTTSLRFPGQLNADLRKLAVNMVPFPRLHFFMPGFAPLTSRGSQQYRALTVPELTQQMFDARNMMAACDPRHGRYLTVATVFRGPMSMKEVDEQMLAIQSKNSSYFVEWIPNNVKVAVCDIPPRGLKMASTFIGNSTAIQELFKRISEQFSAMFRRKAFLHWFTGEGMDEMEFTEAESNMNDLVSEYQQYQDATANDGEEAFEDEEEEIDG
UniProt Q6IBS0: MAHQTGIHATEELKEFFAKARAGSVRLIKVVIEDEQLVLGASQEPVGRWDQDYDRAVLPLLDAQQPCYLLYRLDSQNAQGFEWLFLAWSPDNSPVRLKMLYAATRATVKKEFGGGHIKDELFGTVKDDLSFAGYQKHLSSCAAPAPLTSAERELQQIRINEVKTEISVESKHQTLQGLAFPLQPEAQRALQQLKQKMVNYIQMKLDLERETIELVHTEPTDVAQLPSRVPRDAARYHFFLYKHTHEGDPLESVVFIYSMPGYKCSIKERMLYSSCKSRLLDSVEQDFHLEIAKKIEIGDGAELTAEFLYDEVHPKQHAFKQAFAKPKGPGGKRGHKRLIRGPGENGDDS
UniProt Q5JXB2: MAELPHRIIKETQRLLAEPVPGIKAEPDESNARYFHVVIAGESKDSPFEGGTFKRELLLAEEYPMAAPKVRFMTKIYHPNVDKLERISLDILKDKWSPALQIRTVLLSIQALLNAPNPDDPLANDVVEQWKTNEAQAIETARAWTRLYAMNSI
UniProt P23258, whole entry, looked up: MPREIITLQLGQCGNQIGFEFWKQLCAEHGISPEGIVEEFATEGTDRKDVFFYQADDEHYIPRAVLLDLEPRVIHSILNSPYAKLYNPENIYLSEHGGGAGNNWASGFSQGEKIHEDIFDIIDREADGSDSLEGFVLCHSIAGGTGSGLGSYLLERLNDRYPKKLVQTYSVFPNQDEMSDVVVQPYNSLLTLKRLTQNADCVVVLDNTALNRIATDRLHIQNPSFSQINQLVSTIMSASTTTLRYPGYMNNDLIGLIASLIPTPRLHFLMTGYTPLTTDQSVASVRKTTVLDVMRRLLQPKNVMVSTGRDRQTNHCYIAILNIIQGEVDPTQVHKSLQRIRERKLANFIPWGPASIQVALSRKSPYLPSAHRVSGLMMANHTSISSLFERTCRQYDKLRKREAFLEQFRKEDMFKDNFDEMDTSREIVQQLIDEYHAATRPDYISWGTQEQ
UniProt P68366, whole entry, looked up: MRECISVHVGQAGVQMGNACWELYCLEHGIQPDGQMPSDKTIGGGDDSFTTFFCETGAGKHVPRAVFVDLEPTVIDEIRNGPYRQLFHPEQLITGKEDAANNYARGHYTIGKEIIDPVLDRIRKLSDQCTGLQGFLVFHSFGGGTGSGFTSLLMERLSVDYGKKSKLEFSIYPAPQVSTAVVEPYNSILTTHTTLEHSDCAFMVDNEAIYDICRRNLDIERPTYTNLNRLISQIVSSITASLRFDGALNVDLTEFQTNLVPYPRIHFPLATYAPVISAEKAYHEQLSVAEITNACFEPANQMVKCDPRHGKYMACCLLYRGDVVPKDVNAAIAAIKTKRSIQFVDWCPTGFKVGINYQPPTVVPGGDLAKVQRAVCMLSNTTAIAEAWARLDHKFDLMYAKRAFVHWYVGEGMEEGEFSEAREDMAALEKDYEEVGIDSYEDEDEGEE
UniProt Q96J42: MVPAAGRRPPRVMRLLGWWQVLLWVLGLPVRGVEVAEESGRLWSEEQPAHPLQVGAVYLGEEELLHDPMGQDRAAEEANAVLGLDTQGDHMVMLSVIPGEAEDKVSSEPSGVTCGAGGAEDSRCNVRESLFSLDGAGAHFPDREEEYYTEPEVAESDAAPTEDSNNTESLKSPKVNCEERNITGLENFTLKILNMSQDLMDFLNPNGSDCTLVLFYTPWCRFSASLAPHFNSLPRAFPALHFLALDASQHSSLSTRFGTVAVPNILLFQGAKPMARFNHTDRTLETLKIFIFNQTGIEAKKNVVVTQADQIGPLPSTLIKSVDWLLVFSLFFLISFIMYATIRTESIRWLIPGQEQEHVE
UniProt O95881: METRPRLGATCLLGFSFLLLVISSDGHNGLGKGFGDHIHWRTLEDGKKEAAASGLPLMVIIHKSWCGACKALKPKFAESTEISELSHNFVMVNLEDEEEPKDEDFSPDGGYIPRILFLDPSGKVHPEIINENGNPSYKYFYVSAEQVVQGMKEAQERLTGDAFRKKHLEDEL
UniProt Q8NBS9: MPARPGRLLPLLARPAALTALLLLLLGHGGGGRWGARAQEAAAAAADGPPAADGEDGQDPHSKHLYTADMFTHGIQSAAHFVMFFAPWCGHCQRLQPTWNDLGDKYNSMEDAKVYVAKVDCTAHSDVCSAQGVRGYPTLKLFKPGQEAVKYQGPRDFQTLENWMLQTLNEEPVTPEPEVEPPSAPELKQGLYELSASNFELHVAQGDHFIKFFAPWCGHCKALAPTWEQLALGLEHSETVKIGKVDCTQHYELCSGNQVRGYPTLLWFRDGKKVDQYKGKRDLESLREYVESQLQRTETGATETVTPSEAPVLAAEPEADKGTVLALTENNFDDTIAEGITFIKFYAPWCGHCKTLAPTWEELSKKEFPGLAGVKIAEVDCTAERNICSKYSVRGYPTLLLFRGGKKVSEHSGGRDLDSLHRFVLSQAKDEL
UniProt Q969T4: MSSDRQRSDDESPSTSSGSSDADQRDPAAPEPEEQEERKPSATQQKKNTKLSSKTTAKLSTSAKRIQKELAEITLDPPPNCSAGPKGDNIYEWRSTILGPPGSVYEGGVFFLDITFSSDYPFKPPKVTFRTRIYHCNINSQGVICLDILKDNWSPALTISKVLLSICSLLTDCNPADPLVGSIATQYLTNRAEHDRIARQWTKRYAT
UniProt Q13885, whole entry, looked up: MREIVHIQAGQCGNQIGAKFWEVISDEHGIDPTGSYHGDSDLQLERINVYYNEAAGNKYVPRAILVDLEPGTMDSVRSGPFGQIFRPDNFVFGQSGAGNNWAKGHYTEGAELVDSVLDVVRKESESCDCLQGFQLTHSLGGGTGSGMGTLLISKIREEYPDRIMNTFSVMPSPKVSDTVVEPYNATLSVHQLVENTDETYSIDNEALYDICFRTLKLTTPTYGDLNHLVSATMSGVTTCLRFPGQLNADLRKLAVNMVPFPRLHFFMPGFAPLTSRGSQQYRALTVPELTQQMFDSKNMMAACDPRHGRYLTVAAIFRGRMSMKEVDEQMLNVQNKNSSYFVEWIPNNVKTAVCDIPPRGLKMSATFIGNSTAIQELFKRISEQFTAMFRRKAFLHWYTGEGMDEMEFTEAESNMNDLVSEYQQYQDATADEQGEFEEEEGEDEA
UniProt Q05086: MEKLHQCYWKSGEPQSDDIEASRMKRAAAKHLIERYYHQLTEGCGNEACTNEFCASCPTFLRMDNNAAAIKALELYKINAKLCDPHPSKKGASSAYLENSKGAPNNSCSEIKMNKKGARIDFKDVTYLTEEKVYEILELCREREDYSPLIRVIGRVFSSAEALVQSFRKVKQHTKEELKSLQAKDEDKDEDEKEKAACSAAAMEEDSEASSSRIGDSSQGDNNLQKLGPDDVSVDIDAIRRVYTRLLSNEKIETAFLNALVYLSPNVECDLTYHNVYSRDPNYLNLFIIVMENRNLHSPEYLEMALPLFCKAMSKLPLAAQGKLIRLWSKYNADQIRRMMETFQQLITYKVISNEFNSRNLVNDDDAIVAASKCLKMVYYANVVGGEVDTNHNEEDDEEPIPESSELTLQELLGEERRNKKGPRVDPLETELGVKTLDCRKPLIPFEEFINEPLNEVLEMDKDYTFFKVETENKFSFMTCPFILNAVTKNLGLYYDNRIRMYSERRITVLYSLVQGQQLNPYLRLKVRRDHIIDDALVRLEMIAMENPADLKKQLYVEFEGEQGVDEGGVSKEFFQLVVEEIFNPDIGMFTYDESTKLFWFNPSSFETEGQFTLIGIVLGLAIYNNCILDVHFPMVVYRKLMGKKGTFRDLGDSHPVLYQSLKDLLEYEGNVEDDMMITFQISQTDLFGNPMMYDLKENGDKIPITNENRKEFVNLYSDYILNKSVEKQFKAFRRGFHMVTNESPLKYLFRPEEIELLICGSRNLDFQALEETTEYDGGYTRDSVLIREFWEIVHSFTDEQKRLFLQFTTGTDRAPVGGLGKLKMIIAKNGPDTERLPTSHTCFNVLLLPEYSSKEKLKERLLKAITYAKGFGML
UniProt O15042: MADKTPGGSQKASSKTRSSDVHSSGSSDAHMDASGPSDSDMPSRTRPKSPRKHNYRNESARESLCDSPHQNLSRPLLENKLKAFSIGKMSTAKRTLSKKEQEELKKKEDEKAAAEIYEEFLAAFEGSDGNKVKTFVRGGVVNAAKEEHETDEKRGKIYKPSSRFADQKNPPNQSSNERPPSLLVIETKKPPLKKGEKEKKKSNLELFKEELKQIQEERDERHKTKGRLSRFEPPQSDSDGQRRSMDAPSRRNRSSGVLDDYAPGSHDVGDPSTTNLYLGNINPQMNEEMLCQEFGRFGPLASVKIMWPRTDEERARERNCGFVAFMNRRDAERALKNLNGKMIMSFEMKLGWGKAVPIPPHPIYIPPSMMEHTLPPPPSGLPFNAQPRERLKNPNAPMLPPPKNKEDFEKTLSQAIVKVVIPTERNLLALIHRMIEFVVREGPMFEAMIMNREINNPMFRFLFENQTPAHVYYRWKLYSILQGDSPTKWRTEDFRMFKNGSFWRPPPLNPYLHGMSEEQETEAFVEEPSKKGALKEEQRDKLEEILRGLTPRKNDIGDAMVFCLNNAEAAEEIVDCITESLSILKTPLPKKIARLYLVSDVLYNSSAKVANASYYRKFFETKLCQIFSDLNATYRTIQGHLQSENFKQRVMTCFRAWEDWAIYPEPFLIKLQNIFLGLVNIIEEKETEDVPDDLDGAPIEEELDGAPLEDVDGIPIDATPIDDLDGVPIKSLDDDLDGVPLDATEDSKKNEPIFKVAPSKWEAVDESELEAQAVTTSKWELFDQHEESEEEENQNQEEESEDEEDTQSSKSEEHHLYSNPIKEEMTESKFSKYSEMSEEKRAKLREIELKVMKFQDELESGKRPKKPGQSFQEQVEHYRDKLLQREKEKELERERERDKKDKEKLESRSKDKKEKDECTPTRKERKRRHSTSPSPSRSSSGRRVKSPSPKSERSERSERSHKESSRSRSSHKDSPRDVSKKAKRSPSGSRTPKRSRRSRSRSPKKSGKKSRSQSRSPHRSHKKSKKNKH
UniProt Q16763: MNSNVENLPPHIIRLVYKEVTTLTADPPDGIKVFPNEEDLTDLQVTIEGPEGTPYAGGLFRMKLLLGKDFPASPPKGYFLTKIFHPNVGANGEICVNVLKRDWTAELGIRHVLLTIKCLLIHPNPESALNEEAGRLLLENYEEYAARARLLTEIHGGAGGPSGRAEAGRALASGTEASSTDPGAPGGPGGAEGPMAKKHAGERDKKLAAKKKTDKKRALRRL
UniProt O94888: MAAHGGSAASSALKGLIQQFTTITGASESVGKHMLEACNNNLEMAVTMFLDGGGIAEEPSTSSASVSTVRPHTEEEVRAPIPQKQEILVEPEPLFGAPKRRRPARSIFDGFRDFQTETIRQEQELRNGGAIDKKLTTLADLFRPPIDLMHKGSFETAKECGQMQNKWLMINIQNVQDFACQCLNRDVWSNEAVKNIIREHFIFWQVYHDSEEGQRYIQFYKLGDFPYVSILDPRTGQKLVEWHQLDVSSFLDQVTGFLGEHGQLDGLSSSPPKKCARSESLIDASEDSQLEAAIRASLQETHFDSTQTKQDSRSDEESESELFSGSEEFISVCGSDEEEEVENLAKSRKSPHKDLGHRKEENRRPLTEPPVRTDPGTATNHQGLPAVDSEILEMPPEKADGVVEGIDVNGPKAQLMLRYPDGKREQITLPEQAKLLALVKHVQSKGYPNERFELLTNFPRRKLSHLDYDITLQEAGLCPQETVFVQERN
UniProt P0DPH7, whole entry, looked up: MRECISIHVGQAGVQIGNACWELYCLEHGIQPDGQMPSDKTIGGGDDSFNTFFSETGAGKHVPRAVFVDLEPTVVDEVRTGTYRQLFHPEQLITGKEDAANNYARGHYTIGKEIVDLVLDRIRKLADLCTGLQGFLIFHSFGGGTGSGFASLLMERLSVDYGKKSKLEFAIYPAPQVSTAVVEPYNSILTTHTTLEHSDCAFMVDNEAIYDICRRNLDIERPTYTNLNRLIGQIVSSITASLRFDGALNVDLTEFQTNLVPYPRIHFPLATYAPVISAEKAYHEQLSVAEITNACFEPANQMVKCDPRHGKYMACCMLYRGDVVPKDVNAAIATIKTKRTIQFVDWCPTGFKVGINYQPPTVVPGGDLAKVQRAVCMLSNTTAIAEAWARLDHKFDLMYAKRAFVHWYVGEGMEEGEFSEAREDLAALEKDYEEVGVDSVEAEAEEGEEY

Experiments:
Assay in all cases: log2 fold change, soluble protein after heating vs DMSO (PISA); higher = thermal stabilisation; K562 lysate, 10 uM; active = over 0.2 and 3.5 SD of the protein, either way, in both replicates (recomputed)
[1] = compound: NCC(=O)Nc1ccc(-n2nc(C(F)(F)F)cc2-c2ccc3c(ccc4ccccc43)c2)cc1
Procedure, shortened: (§1)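 To prepare the extract, K562 pellets were dounce-homogenised in PBS pH 7.4 with 1 mM MgCl2, giving crude material at 1 mg/mL protein. This was treated with 10 μM compound for 30 min, then heated in aliquots for 3 min over 48°C-58°C before pooling and addition of NP-40 to 0.5% at 4°C. Centrifugation at 21,000xg for 90 min left soluble protein in the supernatant, which TMTpro 16plex LC-MS/MS quantified with equalised channel sums. Results are log-two fold changes in thermal stability compared with solvent controls, from duplicates.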

vorinostat = compound: O=C(CCCCCCC(=O)Nc1ccccc1)NO [vorinostat]
Procedure, shortened: as §1

silmitasertib = compound: O=C(O)c1ccc2c(c1)nc(Nc1cccc(Cl)c1)c1ccncc12 [silmitasertib]
Procedure, shortened: as §1

[2] = compound: O=C1NC(=O)C(c2cnc3ccccn23)=C1c1cn2c3c(cc(F)cc13)CN(C(=O)N1CCCCC1)CC2
Procedure, shortened: as §1

entospletinib = compound: c1cn2cc(-c3ccc4cn[nH]c4c3)nc(Nc3ccc(N4CCOCC4)cc3)c2n1 [entospletinib]
Procedure, shortened: as §1

Target | log2 fold change [1] | log2 fold change (vorinostat) | log2 fold change (silmitasertib) | log2 fold change [2] | log2 fold change (entospletinib)
TXLNG (UniProt Q9NUQ3) | inactive: 0.014 | inactive: -0.037 | inactive: 0.009 | inactive: -0.042 | inactive: -0.014
UBL5 (UniProt Q9BZL1) | inactive: -0.027 | inactive: -0.078 | inactive: 0.065 | inactive: 0.077 | inactive: -0.049
TUBB6 (UniProt Q9BUF5) | inactive: 0.013 | active: -0.558 | inactive: 0.04 | inactive: 0.013 | inactive: 0.004
UBE3C (UniProt Q15386) | inactive: -0.009 | active: -0.479 | inactive: -0.001 | inactive: 0 | inactive: 0.05
UBE2Q1 (UniProt Q7Z7E8) | inactive: 0.032 | inactive: -0.058 | inactive: 0.043 | inactive: 0.009 | inactive: -0.002
UBE2G1 (UniProt P62253) | inactive: 0.001 | inactive: 0.094 | inactive: -0.034 | inactive: -0.01 | inactive: 0.01
UAP1 (UniProt Q16222) | inactive: 0.003 | inactive: -0.055 | inactive: -0.001 | inactive: 0.002 | inactive: 0.014
TWF2 (UniProt Q6IBS0) | inactive: -0.024 | inactive: 0.044 | inactive: -0.017 | inactive: -0.006 | inactive: 0
UBE2NL (UniProt Q5JXB2) | inactive: -0.054 | inactive: 0.123 | inactive: 0.01 | inactive: 0 | inactive: -0.034
TUBG1 (UniProt P23258) | inactive: 0.009 | inactive: -0.202 | inactive: 0.042 | inactive: 0.052 | inactive: 0.027
TUBA4A (UniProt P68366) | inactive: 0.066 | active: -0.736 | inactive: 0.077 | inactive: 0.051 | inactive: -0.045
TXNDC15 (UniProt Q96J42) | inactive: 0.006 | inactive: 0.111 | inactive: 0.056 | inactive: -0.051 | inactive: -0.067
TXNDC12 (UniProt O95881) | inactive: -0.02 | inactive: 0.088 | inactive: 0.012 | inactive: -0.001 | inactive: -0.009
TXNDC5 (UniProt Q8NBS9) | inactive: 0.02 | inactive: 0.1 | inactive: -0.032 | inactive: 0.015 | inactive: 0
UBE2E3 (UniProt Q969T4) | inactive: 0.048 | inactive: 0.022 | inactive: 0.03 | inactive: 0.003 | inactive: -0.006
TUBB2A (UniProt Q13885) | inactive: 0.034 | active: -0.759 | inactive: 0.016 | inactive: -0.004 | inactive: -0.012
UBE3A (UniProt Q05086) | inactive: 0.018 | inactive: -0.006 | inactive: 0.008 | inactive: -0.001 | inactive: 0.003
TUBB4A (UniProt M0QYM7) | inactive: 0.128 | inactive: -0.431 | inactive: 0.01 | inactive: -0.062 | inactive: 0.032
U2SURP (UniProt O15042) | inactive: 0.01 | inactive: -0.208 | inactive: 0.007 | inactive: -0.007 | inactive: -0.007
UBE2S (UniProt Q16763) | inactive: 0.015 | inactive: -0.13 | inactive: -0.001 | inactive: 0.018 | inactive: 0.01
TXNL4A (UniProt P83876) | inactive: 0.023 | inactive: 0.118 | inactive: -0.011 | inactive: -0.045 | inactive: -0.02
U2AF2 (UniProt P26368) | inactive: 0.012 | inactive: 0.154 | inactive: -0.081 | inactive: 0.006 | inactive: -0.003
UCK1 isoform 4 (UniProt Q9HA47) | inactive: -0.091 | inactive: -0.144 | inactive: -0.076 | inactive: 0 | inactive: 0.004
UBXN7 (UniProt O94888) | inactive: 0.008 | inactive: 0.025 | inactive: 0.006 | inactive: 0.017 | inactive: 0
TUBA3C (UniProt P0DPH7) | inactive: 0 | active: -0.913 | inactive: 0.017 | inactive: -0.008 | inactive: -0.007
TTN isoform 12 (UniProt Q8WZ42) | inactive: 0.172 | inactive: -0.003 | inactive: -0.048 | inactive: 0.047 | inactive: 0.014
TXNL1 (UniProt O43396) | inactive: -0.022 | inactive: 0.125 | inactive: -0.015 | inactive: -0.013 | inactive: -0.02

Fetched one by one from above, 2 records:
Target | log2 fold change [1] | log2 fold change (vorinostat) | log2 fold change (silmitasertib) | log2 fold change [2] | log2 fold change (entospletinib)
UBE3C (UniProt Q15386) | inactive: -0.009 | active: -0.479 | inactive: -0.001 | inactive: 0 | inactive: 0.05
UBE2E3 (UniProt Q969T4) | inactive: 0.048 | inactive: 0.022 | inactive: 0.03 | inactive: 0.003 | inactive: -0.006
